Laboratory results taken from US20180207259A1 (BETH ISRAEL DEACONESS MEDICAL CENTER, published 2018).

Molecular target: T1, soluble CD4 (UniProt P01730 26-396)
T1 construct: Called only 'soluble CD4'
Experiment: surface plasmon resonance

B1: 92UG037.8-gp140-Fd (other)
chain: AENLWVTVYYGVPVWKDAETTLFCASDAKAYDTEVHNVWATHACVPTDPNPQEIYMENVTEEFNMWKNNMVEQMHTDIISLWDQSLKPCVQLTPLCVTLDCSYNITNNITNSITNSSVNMREEIKNCSFNMTTELRDKNRKVYSLFYKLDVVQINNGNNSSNLYRLINCNTSALTQACPKVTFEPIPIRYCAPAGYAILKCNDKEFNGTGLCKNVSTVQCTHGIRPVVSTQLLLNGSLAEGKVMIRSENITNNVKNIIVQLNETVTINCTRPNNNTRKSVRIGPGQTFYATGDIIGDIRQAHCNVSGSQWNRALHQVVGQLREYWNTTIIFKNSSGGDLEITTHSFNCGGEFFYCNTSGLFNSNWTHNDTASMKPNDTITLPCRIKQIINMWQRVGQAIYAPPIQGVIRCESNITGLILTRDGGGNINESQIFRPGGGDMRDNWRSELYKYKVVRIEPLGVAPTKAKRRVVEREKRAVVELGAVFIGFLGTAGSTMGAASITLTVQVRKLLSGIVQQQSNLLRAIEAQQHLLKLTVWGIKQLQARVLAVERYLRDQQLLGIWGCSGKLICTTNVPWNSSWSNKSEREIWENMTWLQWDKEISNYTHIIYELIEESQKQQEKNEQELLELDKWANLWNWFDISNWLWYIKEFSRIEGRGSGGYIPEAPRDGQAYVRKDGEWVLLSTFLGHHHHHH
notes: Homotrimer made in T. ni (High 5) insect cells; The leader of the insect-cell construct may differ; also called 92UG037.8 (clade A) gp140 trimer; clade A trimer
- Kd: 1.9 nM
